PubChem BioAssay AID1259405, NCATS – 2018
Assay: 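Knock-downs that lift recombinant protein yield in hamster ovary cells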 (primary screen). Cell system: Chinese hamster CHO-K1 ovary cells with stable secreted eGFP expression. Knock-down reagent: single siRNA against mouse genes, 0.8 pmol siRNA per well (2 µl of 400 nM stock). Timing: 3 days. Measurement: 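Percent of the per-plate non-targeting control median for intracellular GFP per well by laser scanning cytometry and for cell viability by ATP luminescence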. Reading the numbers: GFP, % of control: higher = more GFP per well, higher productivity; viability (ATP), % of control: higher = more viable cells (more ATP). Active means: 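a knock-down is called active if GFP reaches 120% or more of non-targeting control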.
Shown is a random part of about 50,000 reagents. About 4,000 of all reagents (8%) were called active. 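Mouse siRNA library applied to hamster cells; one well for each siRNA.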 Unmarked entries are inactive. The numbers tell different reagents against one gene apart.

| gene knocked down | reagent no. | GFP, % of control | viability (ATP), % of control |
| --- | --- | --- | --- |
| Mgat5b | 1 | 115 | 85.4 |
| Mgat5b | 2 | 148 (active) | 93.4 |
| Mgat5b | 3 | 69.8 | 62 |
| Fezf2 | 1 | 67.5 | 65.1 |
| Fezf2 | 2 | 62.6 | 74.2 |
| Fezf2 | 3 | 51.4 | 45 |
| Trappc12 | 1 | 134 (active) | 98.2 |
| Trappc12 | 2 | 60.3 | 74.2 |
| Trappc12 | 3 | 79.1 | 80.6 |
| Acot9 | 1 | 24 | 43.3 |
| Acot9 | 2 | 69.5 | 81.1 |
| Acot9 | 3 | 64.4 | 72.5 |
| Zfp595 | 1 | 77 | 80 |
| Zfp595 | 2 | 76.8 | 79.2 |
| Zfp595 | 3 | 93.8 | 117 |
| Zfp106 | 1 | 71.9 | 98.9 |
| Zfp106 | 2 | 61.8 | 87.2 |
| Psma6 | 1 | 9.51 | 4.21 |
| Psma6 | 2 | 77.5 | 60.6 |
| Psma6 | 3 | 10.9 | 3.27 |
| Ctdspl | 1 | 28.7 | 25.7 |
| Ctdspl | 2 | 59.3 | 79.5 |
| Ctdspl | 3 | 81.8 | 80.5 |
| Muc20 | 1 | 103 | 86.8 |
| Muc20 | 2 | 38.4 | 75.3 |
| Muc20 | 3 | 89.2 | 56.1 |
| Dnajc24 | 1 | 66.4 | 73.2 |
| Dnajc24 | 2 | 108 | 85.8 |
| Dnajc24 | 3 | 87.7 | 104 |
| Cdh16 | 1 | 69.4 | 65 |
| Cdh16 | 2 | 36.2 | 66.5 |
| Cdh16 | 3 | 59.5 | 66.4 |
| Cerkl | 1 | 81.1 | 78.4 |
| Cerkl | 2 | 43.9 | 63.7 |
| Cerkl | 3 | 63.6 | 89.1 |
| Maneal | 1 | 60.3 | 48.1 |
| Maneal | 2 | 128 (active) | 89.2 |
| Maneal | 3 | 29.2 | 54.7 |
| Senp7 | 1 | 96.6 | 84.5 |
| Senp7 | 2 | 107 | 81.1 |
| Senp7 | 3 | 96.7 | 95.5 |
| 8430429K09Rik | 1 | 98.5 | 58.2 |
| 8430429K09Rik | 2 | 97.6 | 89.8 |
| 8430429K09Rik | 3 | 153 (active) | 128 |
| Dst | 1 | 31.5 | 61.1 |
| Dst | 2 | 87.7 | 90.7 |
| Dst | 3 | 52.4 | 62 |
| Pctp | 1 | 114 | 70.2 |
| Pctp | 2 | 86.3 | 65.5 |
| Pctp | 3 | 110 | 78.8 |
| Synpo2l | 1 | 70.8 | 83.7 |
| Synpo2l | 2 | 61.7 | 67.5 |
| Zhx2 | 1 | 69.5 | 76.7 |
| Zhx2 | 2 | 75.2 | 74.6 |
| Mga | 1 | 96.5 | 101 |
| Mga | 2 | 63.4 | 59.3 |
| Mga | 3 | 99 | 102 |
| Akap1 | 1 | 49.7 | 26.2 |
| Akap1 | 2 | 58.3 | 59.6 |
| Tspan33 | 1 | 83.6 | 43.2 |
| Tspan33 | 2 | 58.6 | 68.3 |
| Tspan33 | 3 | 121 (active) | 73.7 |
| Slc7a9 | 1 | 51.9 | 56.6 |
| Slc7a9 | 2 | 95.6 | 72.7 |
| Slc7a9 | 3 | 78.2 | 83.8 |
| Sp2 | 1 | 112 | 95.5 |
| Sp2 | 2 | 45.6 | 72.5 |
| Cacna1h | 1 | 99.9 | 107 |
| Cacna1h | 2 | 66.9 | 79.6 |
| Cacna1h | 3 | 74.5 | 88.1 |
| Spag16 | 1 | 82.3 | 77.8 |
| Spag16 | 2 | 114 | 89.3 |
| Spag16 | 3 | 104 | 92 |
| Spa17 | 1 | 80 | 63.1 |
| Spa17 | 2 | 76.6 | 70.5 |
| Spa17 | 3 | 72.8 | 78.3 |
| Map7d1 | 1 | 64.6 | 67.5 |
| Map7d1 | 2 | 62.1 | 72.3 |
| Map7d1 | 3 | 68.4 | 67.8 |
| 4930429B21Rik | 1 | 127 (active) | 77.2 |
| 4930429B21Rik | 2 | 82 | 64.9 |
| 4930429B21Rik | 3 | 88.5 | 85.1 |
| Terf2ip | 1 | 67.2 | 71.8 |
| Terf2ip | 2 | 64.7 | 85.3 |
| Adgrg1 | 1 | 55.2 | 69.9 |
| Adgrg1 | 2 | 80.6 | 65.5 |
| Adgrg1 | 3 | 75.7 | 67.5 |
| Dag1 | 1 | 126 (active) | 102 |
| Dag1 | 2 | 63.2 | 57.7 |
| Dag1 | 3 | 186 (active) | 90.7 |
| BC016579 | 1 | 57.6 | 62.5 |
| BC016579 | 2 | 80.9 | 88.2 |
| BC016579 | 3 | 126 (active) | 111 |
| Krtap19-2 | 1 | 41.5 | 56.7 |
| Krtap19-2 | 2 | 90 | 69.1 |
| Krtap19-2 | 3 | 142 (active) | 73.5 |
| Or5m3 | 1 | 50.2 | 75 |
| Or5m3 | 2 | 71.8 | 82.4 |
| Or5m3 | 3 | 95.2 | 54.3 |
| Trpv3 | 1 | 75.6 | 86.4 |
| Trpv3 | 2 | 76.7 | 92.4 |
| Trpv3 | 3 | 54.2 | 77.6 |
| Btbd3 | 1 | 96.4 | 95.2 |
| Btbd3 | 2 | 77.9 | 69.9 |
| Btbd3 | 3 | 114 | 145 |
| BC028528 | 1 | 87.5 | 61.1 |
| BC028528 | 2 | 89.6 | 94.7 |
| BC028528 | 3 | 81.4 | 96.2 |

As entered above.
4930429B21Rik #2, viability (ATP), % of control → 64.9
Under “viability (ATP), % of control”, Dag1 #2 shows 57.7
Value for Btbd3 #3 in “viability (ATP), % of control”: 145
Result for Synpo2l #2 in “viability (ATP), % of control”: 67.5
Value for Btbd3 #1 in “viability (ATP), % of control”: 95.2
Under “viability (ATP), % of control”, BC016579 #1 has 62.5
